Laboratory results reported in paper PMC7594292, “Two conformations of DNA polymerase D-PCNA-DNA, an archaeal replisome complex, revealed by cryo-electron microscopy” (BMC Biology, 2020).
The exact form of at least one protein or probe is not confirmed. At least one verdict rests on a figure or table, not on a statement of the authors. For some assays here: Where a protein sequence is shown, tags need not be part of it.

Key:
[1] = target: T1, DP2CTD (Thermococcus kodakarensis) (UniProt Q5JET0); experiment: EMSA; conditions: 2 mM MgCl2, weaker than DP1-DP2CTD; EMSA: 20 mM Tris-HCl pH 8.0, 10 mM KCl, 10 mM (NH4)2SO4, 1 mM DTT, 0.1 mg/ml BSA, 2 mM MgCl2, 40 C 10 min, 0.8% agarose 0.1x TAE; recombinant protein; residues 1474-1798; protein details: His; label: 5' Cy5; single-stranded DNA
T1 sequence (looked up): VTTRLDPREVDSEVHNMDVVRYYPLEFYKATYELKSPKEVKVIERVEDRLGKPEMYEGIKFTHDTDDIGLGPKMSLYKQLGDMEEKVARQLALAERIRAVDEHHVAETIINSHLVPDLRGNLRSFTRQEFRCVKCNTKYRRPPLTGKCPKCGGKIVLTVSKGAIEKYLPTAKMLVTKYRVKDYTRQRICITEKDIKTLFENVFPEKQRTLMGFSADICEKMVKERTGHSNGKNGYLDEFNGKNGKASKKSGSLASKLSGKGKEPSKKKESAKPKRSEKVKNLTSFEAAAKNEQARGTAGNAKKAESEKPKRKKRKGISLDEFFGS

[2] = system: DP1 (PolD small subunit) + DP2CTD; experiment: EMSA; conditions: 2 mM MgCl2; EMSA: 20 mM Tris-HCl pH 8.0, 10 mM KCl, 10 mM (NH4)2SO4, 1 mM DTT, 0.1 mg/ml BSA, 2 mM MgCl2, 40 C 10 min, 0.8% agarose 0.1x TAE; recombinant protein; protein details: His; label: 5' Cy5; single-stranded DNA

CGAACTGCCTGGAATCCTGACGACATGTAGCG [ssDNA Cy5-pri32]
binding result [1]: binds | binding result [2]: binds
